Measured values from doi:10.1101/2019.12.13.867358 (bioRxiv, 2019).
Results are given in words; binding and its absence hold for the method and conditions named. Some entries that bind do so weakly or less than the wild type. Blank lines part the entries; values can stand above or below the binder they belong to.

Assays:
Brn1 (S. cerevisiae) = target: T1, Brn1 (S. cerevisiae) (UniProt P38170); assay: tandem affinity co-purification
T1 sequence: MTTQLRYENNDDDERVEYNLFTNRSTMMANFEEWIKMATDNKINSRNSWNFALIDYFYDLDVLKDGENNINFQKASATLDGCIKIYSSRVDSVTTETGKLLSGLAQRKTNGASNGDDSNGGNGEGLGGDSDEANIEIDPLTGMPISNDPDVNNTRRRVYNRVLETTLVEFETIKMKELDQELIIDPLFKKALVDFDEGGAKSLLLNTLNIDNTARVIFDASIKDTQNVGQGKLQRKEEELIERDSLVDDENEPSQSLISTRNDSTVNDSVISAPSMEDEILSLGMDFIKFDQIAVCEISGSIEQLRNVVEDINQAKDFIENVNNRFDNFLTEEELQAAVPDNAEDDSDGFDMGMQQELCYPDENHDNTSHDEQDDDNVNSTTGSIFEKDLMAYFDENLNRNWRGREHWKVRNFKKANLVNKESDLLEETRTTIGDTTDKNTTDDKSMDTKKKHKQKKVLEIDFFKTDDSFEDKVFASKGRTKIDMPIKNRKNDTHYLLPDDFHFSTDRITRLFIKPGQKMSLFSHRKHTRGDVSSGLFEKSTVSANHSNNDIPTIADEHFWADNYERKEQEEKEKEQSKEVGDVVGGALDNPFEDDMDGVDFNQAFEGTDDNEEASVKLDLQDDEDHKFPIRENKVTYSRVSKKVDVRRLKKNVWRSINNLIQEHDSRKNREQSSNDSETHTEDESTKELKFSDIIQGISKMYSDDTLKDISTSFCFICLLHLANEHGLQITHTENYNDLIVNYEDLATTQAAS

[1] = target: T2, Smc4 E1352Q (S. cerevisiae) (UniProt Q12267); assay: tandem affinity co-purification
T2 sequence: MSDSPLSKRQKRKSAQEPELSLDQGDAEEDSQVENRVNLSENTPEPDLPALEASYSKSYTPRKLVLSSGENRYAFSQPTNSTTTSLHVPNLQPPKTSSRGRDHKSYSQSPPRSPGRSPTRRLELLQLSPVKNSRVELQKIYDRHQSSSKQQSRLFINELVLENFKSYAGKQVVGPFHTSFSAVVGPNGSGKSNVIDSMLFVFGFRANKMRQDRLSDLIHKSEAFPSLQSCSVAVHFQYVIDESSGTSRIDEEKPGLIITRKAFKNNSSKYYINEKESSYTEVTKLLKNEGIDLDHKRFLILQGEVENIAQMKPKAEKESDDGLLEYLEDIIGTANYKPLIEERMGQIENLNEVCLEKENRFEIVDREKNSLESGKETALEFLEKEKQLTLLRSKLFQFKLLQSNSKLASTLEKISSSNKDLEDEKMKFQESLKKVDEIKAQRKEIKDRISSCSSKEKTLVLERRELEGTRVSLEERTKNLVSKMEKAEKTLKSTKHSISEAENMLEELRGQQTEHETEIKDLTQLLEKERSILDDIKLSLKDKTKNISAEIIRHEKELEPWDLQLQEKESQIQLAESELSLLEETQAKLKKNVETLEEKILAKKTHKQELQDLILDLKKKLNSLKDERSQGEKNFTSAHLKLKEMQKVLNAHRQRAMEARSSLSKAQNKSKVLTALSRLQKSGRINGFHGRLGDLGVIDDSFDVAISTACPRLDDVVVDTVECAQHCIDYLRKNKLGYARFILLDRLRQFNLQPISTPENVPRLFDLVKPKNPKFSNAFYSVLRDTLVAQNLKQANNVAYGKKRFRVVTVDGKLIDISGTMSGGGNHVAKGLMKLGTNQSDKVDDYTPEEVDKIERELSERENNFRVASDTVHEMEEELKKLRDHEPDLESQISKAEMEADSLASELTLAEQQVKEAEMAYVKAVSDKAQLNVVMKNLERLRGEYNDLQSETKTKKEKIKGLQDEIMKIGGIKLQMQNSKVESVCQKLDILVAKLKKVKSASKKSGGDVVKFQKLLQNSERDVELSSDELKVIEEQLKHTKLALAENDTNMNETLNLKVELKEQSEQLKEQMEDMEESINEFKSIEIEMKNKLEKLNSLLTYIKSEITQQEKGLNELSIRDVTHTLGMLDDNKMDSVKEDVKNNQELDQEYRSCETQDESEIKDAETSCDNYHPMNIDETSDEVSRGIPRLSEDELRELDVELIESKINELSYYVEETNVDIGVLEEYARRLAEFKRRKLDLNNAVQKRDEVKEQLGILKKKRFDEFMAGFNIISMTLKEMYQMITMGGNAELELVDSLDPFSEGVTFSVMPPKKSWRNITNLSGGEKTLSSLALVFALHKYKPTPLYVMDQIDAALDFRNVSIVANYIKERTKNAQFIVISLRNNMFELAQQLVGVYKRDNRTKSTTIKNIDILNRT

binding (Brn1 (S. cerevisiae)): binds | binding [1]: binds
B1: Smc2 E1113Q (protein, UniProt P38989 1-1170)
chain: MKVEELIIDGFKSYATRTVITDWDPQFNAITGLNGSGKSNILDAICFVLGIASMSTVRASSLQDLIYKRGQAGVTKASVTIVFDNTDKSNSPIGFTNSPQISVTRQVVLGGTSKYLINGHRAPQQSVLQLFQSVQLNINNPNFLIMQGKITKVLNMKPSEILSLIEEAAGTKMFEDRREKAERTMSKKETKLQENRTLLTEEIEPKLEKLRNEKRMFLEFQSTQTDLEKTERIVVSYEYYNIKHKHTSIRETLENGETRMKMLNEFVKKTSEEIDSLNEDVEEIKLQKEKELHKEGTISKLENKENGLLNEISRLKTSLSIKVENLNDTTEKSKALESEIASSSAKLIEKKSAYANTEKDYKMVQEQLSKQRDLYKRKEELVSTLTTGISSTGAADGGYNAQLAKAKTELNEVSLAIKKSSMKMELLKKELLTIEPKLKEATKDNELNVKHVKQCQETCDKLRARLVEYGFDPSRIKDLKQREDKLKSHYYQTCKNSEYLKRRVTNLEFNYTKPYPNFEASFVHGVVGQLFQIDNDNIRYATALQTCAGGRLFNVVVQDSQTATQLLERGRLRKRVTIIPLDKIYTRPISSQVLDLAKKIAPGKVELAINLIRFDESITKAMEFIFGNSLICEDPETAKKITFHPKIRARSITLQGDVYDPEGTLSGGSRNTSESLLVDIQKYNQIQKQIETIQADLNHVTEELQTQYATSQKTKTIQSDLNLSLHKLDLAKRNLDANPSSQIIARNEEILRDIGECENEIKTKQMSLKKCQEEVSTIEKDMKEYDSDKGSKLNELKKELKLLAKELEEQESESERKYDLFQNLELETEQLSSELDSNKTLLHNHLKSIESLKLENSDLEGKIRGVEDDLVTVQTELNEEKKRLMDIDDELNELETLIKKKQDEKKSSELELQKLVHDLNKYKSNTNNMEKIIEDLRQKHEFLEDFDLVRNIVKQNEGIDLDTYRERSKQLNEKFQELRKKVNPNIMNMIENVEKKEAALKTMIKTIEKDKMKIQETISKLNEYKRETLVKTWEKVTLDFGNIFADLLPNSFAKLVPCEGKDVTQGLEVKVKLGNIWKESLIELSGGQRSLIALSLIMALLQFRPAPMYILDQVDAALDLSHTQNIGHLIKTRFKGSQFIVVSLKEGMFANANRVFRTRFQDGTSVVSIM

binding (Brn1 (S. cerevisiae)): binds
B2: Smc4 E1352Q (protein, UniProt Q12267 1-1418)
chain: T2 sequence
